Data as given in PubChem BioAssay AID504764 (Drosophila RNAi Screening Center, 2011).
Purpose: 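Genes whose knock-down alters Notch-dependent transcription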 (primary screen). Cells: Drosophila Kc167 cells. Reagent: long dsRNA against Drosophila genes. Duration: about 5 days (4 days dsRNA, then 24 h after transfection). Treatment: transfection of constitutively active membrane-tethered Notch lacking the extracellular domain, read 24 h later. Read-out: 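Firefly luciferase from an E(spl)m3 reporter with active Notch, plus control-promoter and uninduced reporter wells for normalisation; unnormalised counts, duplicate wells a and b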. Direction: induced reporter light, run 1, well a and induced reporter light, run 1, well b: higher = more light from the Notch target reporter with active Notch; control promoter light, run 1, well a and control promoter light, run 1, well b: higher = more light from the viral control promoter (cell number, transfection, viability); uninduced reporter light, run 1, well a: higher = more light from the Notch target reporter without active Notch. Call rule: 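Wells with low control signal or poorly matching duplicates excluded; duplicates averaged; per source plate, z beyond ±2 for induced/control log2 ratio or beyond ±1.8 for induced/uninduced marks a hit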. Calls: active = modifier hit (raised or lowered Notch signal); inactive = not a hit.
The deposit covers about 22,000 reagents; this is an unselected part of those that have a named target and a result. In the full data, 403 (1.9%) were called active. 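Unnormalised raw counts per well; ratio z-scores behind the hit calls and whether each hit raises or lowers signal are not deposited.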 Not given: the amount of reagent.

| gene | DRSC id | induced reporter light, run 1, well a | induced reporter light, run 1, well b | control promoter light, run 1, well a | control promoter light, run 1, well b | uninduced reporter light, run 1, well a | outcome |
| --- | --- | --- | --- | --- | --- | --- | --- |
| Zasp67 | DRSC10169 | 2.38e5 | 1.82e5 | 3.17e5 | 2.71e5 | 10925 | inactive |
| S2P | DRSC07311 | 91485 | 1.09e5 | 1.30e5 | 1.13e5 | 10420 | inactive |
| CG5151 | DRSC10487 | 37065 | 53690 | 33265 | 41185 | 4910 | inactive |
| ND-13B | DRSC10643 | 1.37e5 | 1.45e5 | 1.72e5 | 1.29e5 | 4330 | active |
| CG13743 | DRSC05139 | 1.27e5 | 1.22e5 | 1.97e5 | 1.88e5 | 4978 | inactive |
| CG13743 | DRSC06414 | 46885 | 37860 | 36335 | 37685 | 6365 | inactive |
| Cpr97Ea | DRSC15974 | 1.55e5 | 1.87e5 | 2.16e5 | 1.95e5 | 14728 | inactive |
| Prosbeta5 | DRSC07517 | 17315 | 19800 | 23690 | 27075 | 2015 | inactive |
| Septin1 | DRSC20573 | 71105 | 76565 | 97980 | 97160 | 10000 | inactive |
| CG17196 | DRSC15189 | 1.74e5 | 1.64e5 | 2.33e5 | 2.36e5 | 17335 | inactive |
| mRpL52 | DRSC06585 | 1.41e5 | 1.45e5 | 1.68e5 | 1.83e5 | 13570 | inactive |
| CG13437 | DRSC06397 | 1.86e5 | 1.29e5 | 2.04e5 | 1.86e5 | 5920 | inactive |
| CG2336 | DRSC12581 | 80850 | 1.11e5 | 83575 | 64135 | 6965 | inactive |
| Svip | DRSC08982 | 1.53e5 | 1.77e5 | 1.63e5 | 1.57e5 | 12805 | inactive |
| Prp8 | DRSC07293 | 27970 | 26295 | 17260 | 19240 | 1530 | inactive |
| CG16782 | DRSC18118 | 1.13e5 | 1.05e5 | 1.76e5 | 2.27e5 | 7665 | inactive |
| Oga | DRSC15901 | 1.76e5 | 1.65e5 | 2.07e5 | 2.11e5 | 14115 | inactive |
| Pepck2 | DRSC06013 | 37795 | 33250 | 62465 | 63045 | 3940 | inactive |
| CG14505 | DRSC06476 | 1.33e5 | 96695 | 1.54e5 | 1.52e5 | 10415 | inactive |
| Nopp140 | DRSC11872 | 92925 | 82280 | 90630 | 98290 | 6120 | inactive |

Called active, of those listed so far:
| gene | DRSC id | induced reporter light, run 1, well a | induced reporter light, run 1, well b | control promoter light, run 1, well a | control promoter light, run 1, well b | uninduced reporter light, run 1, well a | outcome |
| --- | --- | --- | --- | --- | --- | --- | --- |
| ND-13B | DRSC10643 | 1.37e5 | 1.45e5 | 1.72e5 | 1.29e5 | 4330 | active |
